In patent publication US20070219248A1, “Salt of Oxalic Acid with -[4[2-(N-Methyl-N-(2-Pyridyl)-Amino)Ethoxy]Benzyl]Thiazolidin-2,4- Dione and a Method of its Preparation and its Use” (priority 2004, published 2007):
Where a name gives a salt, the structure may show the parent alone. At least one compound was matched to its structure with a doubt left.

Test: Solubility of rosiglitazone salts in 0.1 M hydrochloric acid (Example 7)
Assay type: physicochemical
Conditions: 1 g salt
Source text: Contrary to some other salts of rosiglitazone, the above-described crystalline salt of formula III is well soluble in water and in aqueous solutions of hydrochloric acid. Especially the solubility in solutions of hydrochloric acid is very important considering the acidobasic conditions in the digestive system (especially in the stomach). It offers indication of the solubility of the substance after it is digested, which is a very important factor for evaluating pharmaceutical effectiveness of the substance. A comparison of the solubility of the salt of the compound of formula III in acidic environment with some of several other rosiglitazone salts is documented in Example 7. […] However, neither the same amount of rosiglitazone hydrochloride prepared according to WO 2000/063205 nor the same amount of pharmaceutically used rosiglitazone maleate of formula II prepared according to WO 94/05659 could be dissolved under the same conditions.
Solubility was determined for crystalline rosiglitazone oxalate of chemical formula III, which was prepared by the procedure according to Example 1. 1 g of crystalline salt of formula III was dissolved under stirring and at 25° C. in 20, 30, 35 a 40 ml of a 0.1M solution of hydrochloric acid. The mixture was stirred at 25° C. for five minutes. When using 20 and 30 ml of the solvent, there was obtained no solution.

SMILES: CN(CCOc1ccc(CC2SC(=O)NC2=O)cc1)c1ccccn1 (centres unmarked) [rosiglitazone hydrochloride]
- Dissolution of the same amount (1 g) at the same conditions (20 to 40 ml 0.1M hydrochloric acid, 25° C., stirred five minutes): neither dissolving
- Dissolution after extension of the time and another dilution (extended dissolution time, further dilution with 0.1 M hydrochloric acid): No solutions could be obtained
